Measurements reported in PMC10439124.
Results are given in words; binding and its absence hold for the method and conditions named.

Chains of the proteins cited; added tags and fusions are not shown. Residues count along the entry.
UniProt P68874, residues 542-736: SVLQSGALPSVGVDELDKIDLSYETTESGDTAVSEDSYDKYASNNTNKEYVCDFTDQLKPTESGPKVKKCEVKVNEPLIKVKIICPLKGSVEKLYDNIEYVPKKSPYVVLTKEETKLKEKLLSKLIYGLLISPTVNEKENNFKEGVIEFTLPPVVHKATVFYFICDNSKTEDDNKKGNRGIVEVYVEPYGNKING

Biological target: Pfs230D1 (domain 1 of Plasmodium falciparum Pfs230 with part of the N-terminal region) (Plasmodium falciparum (3D7)) (UniProt P68874)
Test: SEC-MALS + other: SEC-SAXS; SIBYLS beamline 12.3.1; the sample was injected into a size-exclusion column and a post-column splitter directed the eluate to the MALS and SAXS systems; molecular weight from Astra 6 (MALS) and PRIMUS/ATSAS (SAXS); both purified

Pfs230D1 (domain 1 of Plasmodium falciparum Pfs230 with part of the N-terminal region) (from UniProt P68874 542-736) (domain or fragment)
binding: no binding
